{"sequences": {"note": "By UniProt entry, the sequences of proteins in these tests, tags left out. Where a name states a change or a piece, a line headed by the entry shows the natural chain unless it says otherwise.", "UniProt P0A7Z4": "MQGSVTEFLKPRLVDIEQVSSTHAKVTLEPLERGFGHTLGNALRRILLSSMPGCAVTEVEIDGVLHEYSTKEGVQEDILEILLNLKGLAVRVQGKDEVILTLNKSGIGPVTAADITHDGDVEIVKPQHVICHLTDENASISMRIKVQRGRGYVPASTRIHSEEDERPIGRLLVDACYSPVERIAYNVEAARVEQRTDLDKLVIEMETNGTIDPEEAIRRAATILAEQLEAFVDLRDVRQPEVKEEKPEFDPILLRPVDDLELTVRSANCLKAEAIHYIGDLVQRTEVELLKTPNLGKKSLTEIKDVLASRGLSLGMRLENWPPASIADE"}, "source": "paper PMC7527559", "molecular_target": "T1, Wt GreA protein with a C-terminal His-tag (GreA-His) (E. coli) (UniProt P0A6W5)", "T1 sequence": "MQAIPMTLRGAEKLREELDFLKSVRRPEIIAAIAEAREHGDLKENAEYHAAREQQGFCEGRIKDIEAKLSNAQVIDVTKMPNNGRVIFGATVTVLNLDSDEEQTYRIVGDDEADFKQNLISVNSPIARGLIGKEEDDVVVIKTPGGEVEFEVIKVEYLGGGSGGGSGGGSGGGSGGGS", "assay": "pull-down; GreA-His held on Dynabeads His-Tag magnetic beads from whole cell extracts of E. coli CF14758 (ΔgreA ΔgreB); co-purified RNAP estimated by anti-RpoA Western blot normalised to GreA-His; untagged competitor GreA (Wt, S121P or E59G) induced with increasing IPTG for 30 min; 50 mM sodium-phosphate pH 8.0, 300 mM NaCl, 0.01% Tween-20, 5 min at room temperature", "note": "These are yes or no findings as the source states them, for the method shown. Binding seen in cells or lysates may run through a third protein. Some entries that bind do so weakly or less than the wild type. Where a sequence is shown, tags or fusion partners need not be part of it."}
{"substance": "E. coli RNA polymerase (RNAP) (from UniProt P0A7Z4 1-329; P0A8V2 1-1342; P0A8T7 1-1407; P0A800 1-91) (complex)", "values": [{"measurement": "binding", "value": "binds"}]}
